Results taken from the supplement of paper PMC10849652.
The list shows a part of the results.

The chains behind the UniProt entries cited, without tags or fusion partners. Where a name states a change or a piece, a line headed by the entry shows the natural chain unless it says otherwise.
UniProt O43491, whole entry, looked up: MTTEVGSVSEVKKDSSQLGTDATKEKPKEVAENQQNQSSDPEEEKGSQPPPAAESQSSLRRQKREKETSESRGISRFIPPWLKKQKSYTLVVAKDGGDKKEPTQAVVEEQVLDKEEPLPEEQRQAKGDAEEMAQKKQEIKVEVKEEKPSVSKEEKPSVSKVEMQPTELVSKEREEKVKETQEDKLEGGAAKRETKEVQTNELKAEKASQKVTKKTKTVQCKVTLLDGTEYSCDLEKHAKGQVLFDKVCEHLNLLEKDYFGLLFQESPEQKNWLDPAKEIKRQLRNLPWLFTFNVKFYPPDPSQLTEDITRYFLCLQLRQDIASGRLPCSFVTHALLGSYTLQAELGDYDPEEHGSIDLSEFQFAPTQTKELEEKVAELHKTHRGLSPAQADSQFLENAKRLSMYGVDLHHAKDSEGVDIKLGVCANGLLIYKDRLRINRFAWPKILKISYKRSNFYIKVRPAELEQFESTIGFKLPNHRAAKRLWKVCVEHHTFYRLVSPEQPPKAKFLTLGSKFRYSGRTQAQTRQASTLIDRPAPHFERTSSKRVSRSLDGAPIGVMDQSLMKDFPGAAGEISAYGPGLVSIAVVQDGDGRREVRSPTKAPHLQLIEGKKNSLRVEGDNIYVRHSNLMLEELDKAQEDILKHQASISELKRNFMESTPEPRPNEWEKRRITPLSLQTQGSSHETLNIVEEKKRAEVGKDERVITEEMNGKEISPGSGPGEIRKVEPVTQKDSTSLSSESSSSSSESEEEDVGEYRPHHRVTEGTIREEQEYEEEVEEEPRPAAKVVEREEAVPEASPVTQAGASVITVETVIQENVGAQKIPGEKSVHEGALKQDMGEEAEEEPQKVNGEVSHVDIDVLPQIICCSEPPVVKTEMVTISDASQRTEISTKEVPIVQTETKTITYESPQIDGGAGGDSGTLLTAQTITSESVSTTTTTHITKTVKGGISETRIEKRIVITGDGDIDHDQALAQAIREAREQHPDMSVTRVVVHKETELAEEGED
UniProt Q8N612: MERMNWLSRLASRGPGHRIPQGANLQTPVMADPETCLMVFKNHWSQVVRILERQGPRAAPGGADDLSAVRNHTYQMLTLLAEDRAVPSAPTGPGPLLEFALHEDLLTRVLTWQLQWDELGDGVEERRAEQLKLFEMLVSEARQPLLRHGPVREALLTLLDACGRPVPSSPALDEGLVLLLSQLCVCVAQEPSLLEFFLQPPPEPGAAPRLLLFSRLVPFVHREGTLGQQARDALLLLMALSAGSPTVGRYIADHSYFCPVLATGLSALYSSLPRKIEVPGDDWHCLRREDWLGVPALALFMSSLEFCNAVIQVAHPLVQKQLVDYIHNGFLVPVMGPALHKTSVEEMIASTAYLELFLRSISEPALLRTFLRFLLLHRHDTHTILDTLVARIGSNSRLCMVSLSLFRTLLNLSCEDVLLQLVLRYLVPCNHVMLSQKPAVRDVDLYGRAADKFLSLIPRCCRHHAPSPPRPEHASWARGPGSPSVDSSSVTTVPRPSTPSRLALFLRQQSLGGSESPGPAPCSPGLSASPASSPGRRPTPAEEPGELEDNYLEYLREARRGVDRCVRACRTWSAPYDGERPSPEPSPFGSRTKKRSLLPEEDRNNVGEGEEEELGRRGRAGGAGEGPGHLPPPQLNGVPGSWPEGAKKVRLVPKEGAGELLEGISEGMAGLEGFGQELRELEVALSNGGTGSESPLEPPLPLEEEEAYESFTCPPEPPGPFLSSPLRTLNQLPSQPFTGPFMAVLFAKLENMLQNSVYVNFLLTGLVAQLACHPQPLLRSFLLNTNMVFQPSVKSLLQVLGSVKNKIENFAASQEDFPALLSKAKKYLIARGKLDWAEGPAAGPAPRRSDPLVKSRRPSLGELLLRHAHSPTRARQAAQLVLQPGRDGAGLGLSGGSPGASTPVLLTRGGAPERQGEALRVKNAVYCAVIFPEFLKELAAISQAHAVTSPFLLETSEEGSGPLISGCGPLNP
UniProt P00742, whole entry, looked up: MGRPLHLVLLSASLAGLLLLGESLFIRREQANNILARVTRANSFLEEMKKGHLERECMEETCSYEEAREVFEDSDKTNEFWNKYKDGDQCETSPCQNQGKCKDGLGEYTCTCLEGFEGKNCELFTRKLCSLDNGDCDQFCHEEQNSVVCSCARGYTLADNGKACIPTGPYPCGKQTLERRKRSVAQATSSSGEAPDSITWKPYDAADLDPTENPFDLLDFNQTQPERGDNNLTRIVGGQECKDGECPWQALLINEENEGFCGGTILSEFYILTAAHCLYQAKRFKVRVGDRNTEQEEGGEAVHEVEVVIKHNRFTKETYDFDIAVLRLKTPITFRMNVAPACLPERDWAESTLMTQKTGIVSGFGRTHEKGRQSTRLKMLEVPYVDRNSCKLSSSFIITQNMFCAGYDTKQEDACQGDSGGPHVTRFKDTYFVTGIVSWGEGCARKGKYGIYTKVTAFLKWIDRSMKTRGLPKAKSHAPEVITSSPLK
UniProt Q6NZ36: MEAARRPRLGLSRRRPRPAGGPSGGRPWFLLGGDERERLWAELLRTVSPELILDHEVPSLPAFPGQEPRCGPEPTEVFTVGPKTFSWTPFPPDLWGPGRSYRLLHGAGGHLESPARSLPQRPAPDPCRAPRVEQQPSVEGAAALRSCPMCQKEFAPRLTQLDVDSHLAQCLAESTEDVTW
UniProt Q96EK7: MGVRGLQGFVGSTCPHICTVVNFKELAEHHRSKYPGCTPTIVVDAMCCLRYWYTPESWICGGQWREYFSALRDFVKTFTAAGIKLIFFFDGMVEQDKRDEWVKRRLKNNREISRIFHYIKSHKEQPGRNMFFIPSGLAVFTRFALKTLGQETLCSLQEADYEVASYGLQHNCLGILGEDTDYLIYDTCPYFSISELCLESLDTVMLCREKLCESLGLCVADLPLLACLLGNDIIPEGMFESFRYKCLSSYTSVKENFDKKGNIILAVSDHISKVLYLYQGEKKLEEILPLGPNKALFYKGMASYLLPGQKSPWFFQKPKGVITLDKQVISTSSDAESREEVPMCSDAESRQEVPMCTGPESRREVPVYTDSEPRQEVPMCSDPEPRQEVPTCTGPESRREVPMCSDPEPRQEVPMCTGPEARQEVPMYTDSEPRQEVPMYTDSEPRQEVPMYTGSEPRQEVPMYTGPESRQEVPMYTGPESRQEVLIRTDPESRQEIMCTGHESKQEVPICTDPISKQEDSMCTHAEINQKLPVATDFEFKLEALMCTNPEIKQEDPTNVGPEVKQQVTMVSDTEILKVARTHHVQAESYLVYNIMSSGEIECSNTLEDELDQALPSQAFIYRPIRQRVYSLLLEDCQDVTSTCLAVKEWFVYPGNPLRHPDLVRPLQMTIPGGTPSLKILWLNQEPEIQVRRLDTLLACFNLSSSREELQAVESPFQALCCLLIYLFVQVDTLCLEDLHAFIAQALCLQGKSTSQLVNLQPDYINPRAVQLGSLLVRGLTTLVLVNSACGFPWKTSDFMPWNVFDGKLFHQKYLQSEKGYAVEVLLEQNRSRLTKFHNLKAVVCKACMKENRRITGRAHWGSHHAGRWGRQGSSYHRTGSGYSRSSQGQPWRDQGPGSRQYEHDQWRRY
UniProt Q13216, whole entry, looked up: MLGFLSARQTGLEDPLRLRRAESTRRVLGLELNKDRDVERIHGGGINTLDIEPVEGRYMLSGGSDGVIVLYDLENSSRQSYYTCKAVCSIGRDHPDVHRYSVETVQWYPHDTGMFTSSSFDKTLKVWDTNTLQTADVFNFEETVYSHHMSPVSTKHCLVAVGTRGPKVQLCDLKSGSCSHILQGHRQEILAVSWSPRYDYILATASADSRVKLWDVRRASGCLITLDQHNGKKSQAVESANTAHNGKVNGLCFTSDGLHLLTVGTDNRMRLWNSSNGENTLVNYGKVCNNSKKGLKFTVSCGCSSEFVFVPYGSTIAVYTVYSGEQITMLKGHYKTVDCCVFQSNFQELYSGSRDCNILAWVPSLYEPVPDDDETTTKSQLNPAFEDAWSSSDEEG
UniProt Q8WUF8: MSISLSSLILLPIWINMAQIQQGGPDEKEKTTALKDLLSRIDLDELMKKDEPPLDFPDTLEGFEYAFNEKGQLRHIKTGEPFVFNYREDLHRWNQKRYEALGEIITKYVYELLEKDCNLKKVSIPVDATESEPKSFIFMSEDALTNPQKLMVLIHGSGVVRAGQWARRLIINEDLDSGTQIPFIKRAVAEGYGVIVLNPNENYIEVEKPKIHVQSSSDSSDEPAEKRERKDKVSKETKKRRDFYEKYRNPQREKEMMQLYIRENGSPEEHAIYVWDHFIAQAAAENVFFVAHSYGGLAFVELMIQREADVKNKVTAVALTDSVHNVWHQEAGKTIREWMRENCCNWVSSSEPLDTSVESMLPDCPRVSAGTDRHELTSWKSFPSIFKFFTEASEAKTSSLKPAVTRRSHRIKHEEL
UniProt Q96PV7: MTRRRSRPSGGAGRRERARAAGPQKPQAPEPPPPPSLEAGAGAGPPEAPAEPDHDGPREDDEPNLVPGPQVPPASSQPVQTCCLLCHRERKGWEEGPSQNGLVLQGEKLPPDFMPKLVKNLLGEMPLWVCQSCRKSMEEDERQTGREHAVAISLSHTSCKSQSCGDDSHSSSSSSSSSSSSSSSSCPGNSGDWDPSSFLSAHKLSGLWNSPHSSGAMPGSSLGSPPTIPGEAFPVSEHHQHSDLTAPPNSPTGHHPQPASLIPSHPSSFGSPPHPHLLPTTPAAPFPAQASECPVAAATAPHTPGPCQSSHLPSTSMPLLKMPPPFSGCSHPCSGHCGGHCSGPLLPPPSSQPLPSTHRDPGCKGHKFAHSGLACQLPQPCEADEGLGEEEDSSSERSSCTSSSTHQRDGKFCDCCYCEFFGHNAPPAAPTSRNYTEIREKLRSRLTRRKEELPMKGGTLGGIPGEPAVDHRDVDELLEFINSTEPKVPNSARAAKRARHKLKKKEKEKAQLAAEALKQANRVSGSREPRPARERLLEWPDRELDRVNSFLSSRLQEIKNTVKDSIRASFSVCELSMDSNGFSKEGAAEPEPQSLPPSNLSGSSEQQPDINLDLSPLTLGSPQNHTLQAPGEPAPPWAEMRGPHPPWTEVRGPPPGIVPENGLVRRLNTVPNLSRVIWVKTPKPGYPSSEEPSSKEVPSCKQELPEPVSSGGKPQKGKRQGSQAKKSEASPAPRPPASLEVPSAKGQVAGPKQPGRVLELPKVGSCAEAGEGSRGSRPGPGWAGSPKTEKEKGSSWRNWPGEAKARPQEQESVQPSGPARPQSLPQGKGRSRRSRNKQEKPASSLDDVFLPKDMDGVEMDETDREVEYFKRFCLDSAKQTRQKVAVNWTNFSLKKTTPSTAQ
UniProt P00740, whole entry, looked up: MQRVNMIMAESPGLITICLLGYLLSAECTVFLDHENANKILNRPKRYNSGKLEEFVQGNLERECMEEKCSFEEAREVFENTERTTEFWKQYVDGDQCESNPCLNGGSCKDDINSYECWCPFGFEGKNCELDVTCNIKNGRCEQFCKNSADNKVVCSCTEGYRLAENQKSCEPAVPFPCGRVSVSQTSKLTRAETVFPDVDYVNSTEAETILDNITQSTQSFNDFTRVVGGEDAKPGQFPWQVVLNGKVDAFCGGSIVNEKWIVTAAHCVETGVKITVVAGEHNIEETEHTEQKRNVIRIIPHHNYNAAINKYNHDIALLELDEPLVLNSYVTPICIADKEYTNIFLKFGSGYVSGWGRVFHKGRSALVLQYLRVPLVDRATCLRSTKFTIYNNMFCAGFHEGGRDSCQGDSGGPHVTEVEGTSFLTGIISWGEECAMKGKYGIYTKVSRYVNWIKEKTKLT
UniProt Q7Z309: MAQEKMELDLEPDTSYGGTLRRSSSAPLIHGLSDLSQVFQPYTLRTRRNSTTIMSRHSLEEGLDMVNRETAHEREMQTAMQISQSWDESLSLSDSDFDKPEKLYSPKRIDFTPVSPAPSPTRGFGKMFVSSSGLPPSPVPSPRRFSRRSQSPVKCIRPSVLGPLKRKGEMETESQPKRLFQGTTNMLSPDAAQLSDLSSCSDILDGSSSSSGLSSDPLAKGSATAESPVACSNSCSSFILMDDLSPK

Legend:
Assay in all cases: log2 fold change, soluble protein after heating vs DMSO (PISA); higher = thermal stabilisation; K562 cells, 10 uM, 30 min; active = over 0.2 and 3.5 SD of the protein, either way, in both replicates (recomputed)
volasertib = compound: CC[C@@H]1C(=O)N(C)c2cnc(Nc3ccc(C(=O)N[C@H]4CC[C@H](N5CCN(CC6CC6)CC5)CC4)cc3OC)nc2N1C(C)C [volasertib]
Summary of the method: (§1)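 K562 cells at 2×10^6 cells/mL were given 10 μM compound for 30 min. Aliquots then went through 3 min of heating across 48°C-58°C, were pooled, and were extracted in PBS with 0.5% NP-40 at 4°C, and the supernatant after 21,000xg for 90 min was quantified by TMTpro 16plex LC-MS/MS with channel sums equalised. Thermal stability relative to control samples, from duplicates, is given as log2 fold change.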

[1] = compound: CC[C@H](C)N1C=C(C2=C(C=C(C=C21)C3=CN=C(C=C3)N4CCNCC4)C(=O)NCC5=C(C=C(NC5=O)C)C)C
Summary of the method: as §1

epoxomicin = compound: CC[C@H](C)[C@@H](C(=O)N[C@@H]([C@@H](C)O)C(=O)N[C@@H](CC(C)C)C(=O)[C@]1(CO1)C)NC(=O)[C@H]([C@@H](C)CC)N(C)C(=O)C [epoxomicin]
Summary of the method: as §1

rosiglitazone = compound: CN(CCOC1=CC=C(C=C1)C[C@H]2C(=O)NC(=O)S2)C3=CC=CC=N3 (racemic) [rosiglitazone]
Summary of the method: as §1

sotrastaurin = compound: CN1CCN(c2nc(C3=C(c4c[nH]c5ccccc45)C(=O)NC3=O)c3ccccc3n2)CC1 [sotrastaurin]
Summary of the method: as §1

[2] = compound: CC[C@@H]1C(=O)N(C)c2cnc(Nc3ccc(C(=O)NC4CCN(C)CC4)cc3OC)nc2N1C1CCCC1
Summary of the method: as §1

[3] = compound: CCn1cc(-c2ccnc3[nH]c(-c4cccc(CN(C)C)c4)cc23)c(-c2ccc(NC(=O)N(C)C)cc2)n1
Summary of the method: as §1

[4] = compound: CN(C)CC(=O)Nc1ccc2[nH]c(=O)c3ccccc3c2c1
Summary of the method: as §1

[5] = compound: CN1C2=C(C3=C1C(=O)N(N=C3)CC4=CC(=CC=C4)N)SC(=C2)S(=O)C
Summary of the method: as §1

[6] = compound: CN1CCC(CNc2ccc3ncc(-c4cccc(OC(F)(F)F)c4)n3n2)CC1
Summary of the method: as §1

saracatinib = compound: CN1CCN(CCOc2cc(OC3CCOCC3)c3c(Nc4c(Cl)ccc5c4OCO5)ncnc3c2)CC1 [saracatinib]
Summary of the method: as §1

Tubastatin A = compound: CN1CCc2c(c3ccccc3n2Cc2ccc(C(=O)NO)cc2)C1 [Tubastatin A]
Summary of the method: as §1

defactinib = compound: CNC(=O)c1ccc(Nc2ncc(C(F)(F)F)c(NCc3nccnc3N(C)S(C)(=O)=O)n2)cc1 [defactinib]
Summary of the method: as §1

rucaparib = compound: CNCc1ccc(-c2[nH]c3cc(F)cc4c3c2CCNC4=O)cc1 [rucaparib]
Summary of the method: as §1

[7] = compound: CNc1nc(-c2ccc3c(N)n[nH]c3c2)cc(N2C[C@@H](C(=O)NC3CCCCC3)CC[C@H]2C)n1
Summary of the method: as §1

encorafenib = compound: COC(=O)N[C@@H](C)CNc1nccc(-c2cn(C(C)C)nc2-c2cc(Cl)cc(NS(C)(=O)=O)c2F)n1 [encorafenib]
Summary of the method: as §1

[8] = compound: COC(=O)[C@H](CCSC)NC(=O)C1=C(C=C(C=C1)NC[C@H](CS)N)C2=CC=CC=C2
Summary of the method: as §1

[9] = compound: CCn1c(C(=O)N(C2CC2)C2CC2)cc2c3c(ncn3C)c(Nc3cc(C)n(C)n3)nc21
Summary of the method: as §1

[10] = compound: CNC(=O)C1=CC=CC=C1NC2=NC(=NC=C2Cl)NC3=C(C=C(C=C3)N4CCOCC4)OC
Summary of the method: as §1

alvocidib = compound: CN1CC[C@H](c2c(O)cc(O)c3c(=O)cc(-c4ccccc4Cl)oc23)[C@H](O)C1 [alvocidib]
Summary of the method: as §1

Measured: log2 fold change

EPB41L2 isoform 4 (UniProt O43491)
inactive: volasertib -0.044 | [1] -0.006 | epoxomicin 0.049 | rosiglitazone 0.157 | sotrastaurin -0.174

FAM160A2 isoform 2 (UniProt Q8N612)
inactive: [2] -0.074 | [1] -0.048 | epoxomicin -0.177 | [3] 0.06 | [4] 0.052 | [5] 0.287 | [6] -0.258 | saracatinib -0.066 | Tubastatin A -0.17 | defactinib -0.002 | rucaparib -0.085 | [7] -0.064 | encorafenib -0.168 | [8] 0.128

F10 (UniProt P00742)
inactive: [2] -0.136 | [1] 0.111 | epoxomicin -0.155 | [9] -0.016 | [4] -0.006 | rosiglitazone 0.018 | sotrastaurin 0.202 | Tubastatin A -0.047 | [10] 0.082 | defactinib -0.396 | rucaparib -0.205 | encorafenib -0.032 | [8] 0.392

FAAP20 isoform 2 (UniProt Q6NZ36)
inactive: [2] 0.092 | epoxomicin 0.011 | [3] -0.042 | [6] 0.109 | rucaparib 0.054 | encorafenib -0.282

Taken from the listing (three entries):
FAM160A2 isoform 2 (UniProt Q8N612)
inactive: [2] -0.074 | [1] -0.048 | epoxomicin -0.177 | [3] 0.06 | [4] 0.052 | [5] 0.287 | [6] -0.258 | saracatinib -0.066 | Tubastatin A -0.17 | defactinib -0.002 | rucaparib -0.085 | [7] -0.064 | encorafenib -0.168 | [8] 0.128

F10 (UniProt P00742)
inactive: [2] -0.136 | [1] 0.111 | epoxomicin -0.155 | [9] -0.016 | [4] -0.006 | rosiglitazone 0.018 | sotrastaurin 0.202 | Tubastatin A -0.047 | [10] 0.082 | defactinib -0.396 | rucaparib -0.205 | encorafenib -0.032 | [8] 0.392

FAAP20 isoform 2 (UniProt Q6NZ36)
inactive: [2] 0.092 | epoxomicin 0.011 | [3] -0.042 | [6] 0.109 | rucaparib 0.054 | encorafenib -0.282

Continued.

FAM120B (UniProt Q96EK7)
inactive: [2] -0.03 | [9] 0.007 | [3] 0.049 | [6] -0.002 | [10] 0.027 | rucaparib 0.042 | encorafenib 0.129

ERCC8 (UniProt Q13216)
inactive: [2] -0.003 | volasertib -0.014 | [1] -0.064 | [9] -0.011 | [3] -0.05 | [4] 0.078 | rosiglitazone -0.015 | [5] -0.013 | [6] -0.093 | saracatinib 0.189 | sotrastaurin -0.067 | alvocidib -0.058 | Tubastatin A 0 | [10] -0.005 | defactinib 0.071 | rucaparib -0.104 | [7] -0.038 | encorafenib 0.135 | [8] -0.139

ETF1 isoform 2 (UniProt P62495)
inactive: [2] 0.393 | volasertib -0.007 | [3] 0.08 | [4] 0.06 | rosiglitazone 0.034 | [5] -0.304 | [6] -0.274 | saracatinib 0.108 | defactinib 0.035 | rucaparib -0.29 | [7] -0.068 | encorafenib 0.171 | [8] -0.148

FAM172A (UniProt Q8WUF8)
inactive: [2] -0.132 | [1] -0.087 | epoxomicin -0.028 | [3] 0.144 | [4] 0.027 | rosiglitazone 0.039 | [6] 0.134 | sotrastaurin -0.087 | alvocidib -0.012 | defactinib -0.002 | rucaparib -0.09 | encorafenib 0.033 | [8] -0.054

FAM193B (UniProt Q96PV7)
inactive: [2] 0.126 | volasertib 0.092 | epoxomicin -0.033 | [4] -0.442 | [5] 0.247 | saracatinib -0.289 | sotrastaurin 0.06 | Tubastatin A -0.007 | defactinib 0.231 | rucaparib 0.19 | [7] 0.096 | encorafenib 0.162 | [8] 0.044

F9 (UniProt P00740)
inactive: volasertib 0.162 | [1] 0.147 | [4] 0.071 | rosiglitazone 0.054 | [5] 0.188 | saracatinib 0.301 | alvocidib 0.019 | Tubastatin A -0.008 | defactinib -0.078 | [7] 0.2 | [8] 0.317

FAM122B isoform 3 (UniProt Q7Z309)
inactive: [2] -0.076 | [1] 0.083 | epoxomicin 0.012 | [9] -0.048 | [3] -0.114 | [4] -0.096 | rosiglitazone -0.022 | [5] 0.008 | [6] -0.014 | saracatinib -0.104 | sotrastaurin 0.007 | alvocidib -0.147 | Tubastatin A 0.031 | [10] -0.191 | defactinib -0.001 | rucaparib 0.043 | [7] -0.121 | encorafenib 0.168 | [8] 0.131
